Results on 1 molecule are retold here after US10525115B2 (Immatics Biotechnologies GmbH, priority 2014, dated 2020).

What all share (parameters): species or system human
For data set [1], the system named is primary AML samples. Kind of data set: HLA class I ligandome analysis (W6/32 immunoaffinity purification, LC-MS/MS) of primary AML samples. The conditions noted are these: 15 AML samples.
Data set [2] deals with PBMC of healthy donors. The data set can be described thus: HLA class I ligandome analysis (LC-MS/MS) of healthy donor PBMC. The note with it: 30 PBMC samples.
The subject of data set [3] is BMNC of healthy donors. The data set can be described thus: HLA class I ligandome analysis (LC-MS/MS) of healthy donor BMNC. The conditions noted are these: 5 BMNC samples.

B1: DNAJC2 DnaJ (Hsp40) homolog, subfamily C, member 2: established AML-associated antigen, source protein of the HLA ligands listed under it (protein, UniProt Q99543 1-621, looked up)
DnaJ homolog subfamily C …: MLLLPSAADGRGTAITHALTSASTLCQVEPVGRWFEAFVKRRNRNASASFQELEDKKELSEESEDEELQLEEFPMLKTLDPKDWKNQDHYAVLGLGHVRYKATQRQIKAAHKAMVLKHHPDKRKAAGEPIKEGDNDYFTCITKAYEMLSDPVKRRAFNSVDPTFDNSVPSKSEAKDNFFEVFTPVFERNSRWSNKKNVPKLGDMNSSFEDVDIFYSFWYNFDSWREFSYLDEEEKEKAECRDERRWIEKQNRATRAQRKKEEMNRIRTLVDNAYSCDPRIKKFKEEEKAKKEAEKKAKAEAKRKEQEAKEKQRQAELEAARLAKEKEEEEVRQQALLAKKEKDIQKKAIKKERQKLRNSCKTWNHFSDNEAERVKMMEEVEKLCDRLELASLQCLNETLTSCTKEVGKAALEKQIEEINEQIRKEKEEAEARMRQASKNTEKSTGGGGNGSKNWSEDDLQLLIKAVNLFPAGTNSRWEVIANYMNIHSSSGVKRTAKDVIGKAKSLQKLDPHQKDDINKKAFDKFKKEHGVVPQADNATPSERFEGPYTDFTPWTTEEQKLLEQALKTYPVNTPERWEKIAEAVPGRTKKDCMKRYKELVEMVKAKKAAQEQVLNASRAKK
On to B1, for which the “Number of positive AMLs” value in data set [1] (HLA class I ligandome) was found to be 0. The “rep. frequency % in AMLs” value in data set [1] (source protein level, HLA class I) amounted to 0.0%. Further, the “Number of positive healthy donors (PBMC)” value in data set [2] (HLA class I ligandome, first figure of the cell) was 1. Also, in data set [2] (source protein level), the “rep. frequency % in healthy donors (PBMC)” value came out at 3.3%. Moreover, in data set [3] (HLA class I ligandome, second figure of the cell), the “Number of positive healthy donors (BMNC)” value amounted to 0. For the same molecule, the “rep. frequency % in healthy donors (BMNC)” value in data set [3] (source protein level) was determined as 0.0%.
